# PubChem BioAssay AID1159578 – Peter MacCallum Cancer Centre | 2015
# Screen: 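Knock-downs that alter how fast lymphatic endothelial cells migrate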 (primary screen)
# Cells: human lymphatic endothelial cells
# Reagent: siRNA pool against human genes, 40 nM
# Duration: 48 h after transfection
# Read-out: 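Cells stained with dye and imaged after a scratch; covered wound area and nuclei counted, duplicates averaged, migration set against mock wells and turned into a robust z-score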
# Reading the numbers: migration robust z-score: higher = faster migration into the scratch; nuclei per well: higher = more cells in the well
# Active means: 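Pools averaging fewer than 3300 nuclei are never called; remaining pools count as changed when migration robust z lies outside -2 to 2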
# Calls: active = migration changed; inactive = no migration change, or too few cells
# Here is an unselected part of about 18,000 reagents tested. Of all reagents, about 1,030 (5.7%) got an active call. 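Inactive calls also include pools with fewer than 3300 nuclei, whose migration was not assessed.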 Raw values are not corrected between plates. Further read-outs or replicates are left out here. Reagent sequences are not shown.
gene symbol,migration robust z-score,migration class with cell-count check,"nuclei per well, duplicate mean",Call
INTS6L (GeneID 203522),-0.78,migration z between -2 and 2; enough cells,4322,inactive
NOS1 (GeneID 4842),0.03,migration z between -2 and 2; enough cells,4725,inactive
TBX22 (GeneID 50945),-0.26,migration z between -2 and 2; enough cells,6074,inactive
DAAM2 (GeneID 23500),-0.11,migration z between -2 and 2; enough cells,5409,inactive
S100A2 (GeneID 6273),-0.08,migration z between -2 and 2; enough cells,5328,inactive
RALB (GeneID 5899),0.28,migration z between -2 and 2; enough cells,4856,inactive
RFESD (GeneID 317671),-1.37,migration z between -2 and 2; enough cells,5026,inactive
PBX1 (GeneID 5087),0.5,migration z between -2 and 2; enough cells,4014,inactive
TMEM51 (GeneID 55092),-1.09,migration z between -2 and 2; enough cells,5822,inactive

Continued (3 carried over from the part before).
gene symbol,migration robust z-score,migration class with cell-count check,"nuclei per well, duplicate mean",Call
RFESD (GeneID 317671),-1.37,migration z between -2 and 2; enough cells,5026,inactive
PBX1 (GeneID 5087),0.5,migration z between -2 and 2; enough cells,4014,inactive
TMEM51 (GeneID 55092),-1.09,migration z between -2 and 2; enough cells,5822,inactive
CEACAM1 (GeneID 634),-1.55,migration z between -2 and 2; enough cells,5343,inactive
STRADA (GeneID 92335),-2.54,under 3300 nuclei; migration not judged,3102,inactive
SPSB2 (GeneID 84727),0.18,migration z between -2 and 2; enough cells,5668,inactive
C7orf33 (GeneID 202865),-0.15,migration z between -2 and 2; enough cells,4948,inactive
LRRC27 (GeneID 80313),-0.49,migration z between -2 and 2; enough cells,5493,inactive
ARHGEF7 (GeneID 8874),-0.32,migration z between -2 and 2; enough cells,5032,inactive
HUS1 (GeneID 3364),1.17,migration z between -2 and 2; enough cells,4784,inactive
KCNF1 (GeneID 3754),-1.5,migration z between -2 and 2; enough cells,4357,inactive
ACSL4 (GeneID 2182),-0.96,migration z between -2 and 2; enough cells,4812,inactive
ACVR2A (GeneID 92),-0.28,migration z between -2 and 2; enough cells,5476,inactive
ADCY1 (GeneID 107),1.33,migration z between -2 and 2; enough cells,5856,inactive
PSMB5 (GeneID 5693),0.02,migration z between -2 and 2; enough cells,5762,inactive
TMEM97 (GeneID 27346),-0.22,migration z between -2 and 2; enough cells,5664,inactive
RHOJ (GeneID 57381),0.62,migration z between -2 and 2; enough cells,4476,inactive
